These are yes or no findings as the source states them, for the method shown. In cells and extracts the contact can be indirect. A yes stands for co-enrichment or nearness to the bait. Other partners may have been found. For part of these data: No binding means not detected with the bait. For part of these data: Where a sequence is shown, tags or fusion partners need not be part of it. Values belong to the molecule of their own block, whether it stands above or below them.
What was measured:
[1] = target: T1, AP1µA^EN–TurboID–V5 (human (endogenous in HeLa)) (UniProt Q9BXS5); test: proximity labelling; TurboID fused to AP1µA in living HeLa cells (knock-in or transient overexpression), 50 µM biotin for 24 h; RIPA lysate, streptavidin magnetic beads, on-bead trypsin digest, label-free quantitative LC-MS; enriched: log2 fold change >1 and P<0.05 against cytosolic TurboID–V5 and biotin-treated WT HeLa; three replicates
T1 sequence: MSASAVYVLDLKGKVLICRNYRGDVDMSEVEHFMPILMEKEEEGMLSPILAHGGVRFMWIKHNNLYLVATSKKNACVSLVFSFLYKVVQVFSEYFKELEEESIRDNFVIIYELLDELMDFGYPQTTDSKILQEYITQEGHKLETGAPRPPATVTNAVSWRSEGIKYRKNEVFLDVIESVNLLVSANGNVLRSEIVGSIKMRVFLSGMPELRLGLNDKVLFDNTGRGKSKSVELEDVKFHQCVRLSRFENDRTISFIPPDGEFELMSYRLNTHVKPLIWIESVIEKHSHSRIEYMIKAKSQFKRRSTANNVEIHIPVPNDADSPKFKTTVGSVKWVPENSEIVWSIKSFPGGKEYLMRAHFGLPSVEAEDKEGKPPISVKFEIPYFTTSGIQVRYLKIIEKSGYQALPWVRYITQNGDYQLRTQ

Protein sequences, listed by entry. Tags and fused reporters are not part of them.
UniProt Q96CW1: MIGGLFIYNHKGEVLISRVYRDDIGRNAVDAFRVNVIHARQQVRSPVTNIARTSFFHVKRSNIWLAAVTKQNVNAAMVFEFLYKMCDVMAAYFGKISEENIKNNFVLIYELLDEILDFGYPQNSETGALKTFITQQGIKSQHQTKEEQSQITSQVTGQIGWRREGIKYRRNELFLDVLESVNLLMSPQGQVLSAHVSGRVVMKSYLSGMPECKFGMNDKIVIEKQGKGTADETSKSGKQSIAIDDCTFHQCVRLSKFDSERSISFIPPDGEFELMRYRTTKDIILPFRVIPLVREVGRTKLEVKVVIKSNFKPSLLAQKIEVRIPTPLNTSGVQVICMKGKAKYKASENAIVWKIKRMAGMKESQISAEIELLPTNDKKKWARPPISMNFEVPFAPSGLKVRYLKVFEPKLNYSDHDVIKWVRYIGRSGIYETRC
UniProt Q04656: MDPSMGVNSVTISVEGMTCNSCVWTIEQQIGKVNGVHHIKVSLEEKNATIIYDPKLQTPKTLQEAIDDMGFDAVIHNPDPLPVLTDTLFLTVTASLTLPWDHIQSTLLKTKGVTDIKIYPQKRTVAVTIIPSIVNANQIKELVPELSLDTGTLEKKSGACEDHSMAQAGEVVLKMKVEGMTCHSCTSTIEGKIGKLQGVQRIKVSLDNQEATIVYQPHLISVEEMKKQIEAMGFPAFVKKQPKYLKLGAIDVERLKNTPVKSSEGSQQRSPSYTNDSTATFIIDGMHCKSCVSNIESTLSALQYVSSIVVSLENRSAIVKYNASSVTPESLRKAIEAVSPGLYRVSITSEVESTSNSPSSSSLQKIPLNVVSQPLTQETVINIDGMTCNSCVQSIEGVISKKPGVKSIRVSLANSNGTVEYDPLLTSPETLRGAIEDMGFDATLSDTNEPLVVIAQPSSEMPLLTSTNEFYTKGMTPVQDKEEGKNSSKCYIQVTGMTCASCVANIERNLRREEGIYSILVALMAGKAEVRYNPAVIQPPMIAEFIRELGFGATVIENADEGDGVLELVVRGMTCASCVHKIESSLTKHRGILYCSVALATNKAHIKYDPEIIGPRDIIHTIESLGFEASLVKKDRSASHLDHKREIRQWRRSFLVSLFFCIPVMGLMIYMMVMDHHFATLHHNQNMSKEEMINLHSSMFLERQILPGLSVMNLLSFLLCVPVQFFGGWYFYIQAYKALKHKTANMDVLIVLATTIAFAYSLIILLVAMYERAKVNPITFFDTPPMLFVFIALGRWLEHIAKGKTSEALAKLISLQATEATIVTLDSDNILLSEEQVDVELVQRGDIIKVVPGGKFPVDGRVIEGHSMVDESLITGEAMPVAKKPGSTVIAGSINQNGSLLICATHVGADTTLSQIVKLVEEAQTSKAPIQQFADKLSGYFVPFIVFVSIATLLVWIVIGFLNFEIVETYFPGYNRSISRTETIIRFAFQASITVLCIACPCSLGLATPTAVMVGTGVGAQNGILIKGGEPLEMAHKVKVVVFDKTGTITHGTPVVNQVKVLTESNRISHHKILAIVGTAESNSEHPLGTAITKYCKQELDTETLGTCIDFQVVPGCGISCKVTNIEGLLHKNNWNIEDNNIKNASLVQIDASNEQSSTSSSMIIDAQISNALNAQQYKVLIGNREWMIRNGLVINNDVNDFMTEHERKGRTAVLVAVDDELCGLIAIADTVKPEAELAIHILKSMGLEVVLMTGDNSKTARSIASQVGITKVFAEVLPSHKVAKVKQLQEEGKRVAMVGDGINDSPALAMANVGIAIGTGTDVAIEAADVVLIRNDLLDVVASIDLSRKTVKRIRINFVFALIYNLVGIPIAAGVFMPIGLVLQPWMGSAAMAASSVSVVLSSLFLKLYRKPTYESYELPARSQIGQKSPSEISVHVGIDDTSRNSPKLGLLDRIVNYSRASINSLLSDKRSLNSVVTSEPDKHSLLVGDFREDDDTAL
UniProt Q14677: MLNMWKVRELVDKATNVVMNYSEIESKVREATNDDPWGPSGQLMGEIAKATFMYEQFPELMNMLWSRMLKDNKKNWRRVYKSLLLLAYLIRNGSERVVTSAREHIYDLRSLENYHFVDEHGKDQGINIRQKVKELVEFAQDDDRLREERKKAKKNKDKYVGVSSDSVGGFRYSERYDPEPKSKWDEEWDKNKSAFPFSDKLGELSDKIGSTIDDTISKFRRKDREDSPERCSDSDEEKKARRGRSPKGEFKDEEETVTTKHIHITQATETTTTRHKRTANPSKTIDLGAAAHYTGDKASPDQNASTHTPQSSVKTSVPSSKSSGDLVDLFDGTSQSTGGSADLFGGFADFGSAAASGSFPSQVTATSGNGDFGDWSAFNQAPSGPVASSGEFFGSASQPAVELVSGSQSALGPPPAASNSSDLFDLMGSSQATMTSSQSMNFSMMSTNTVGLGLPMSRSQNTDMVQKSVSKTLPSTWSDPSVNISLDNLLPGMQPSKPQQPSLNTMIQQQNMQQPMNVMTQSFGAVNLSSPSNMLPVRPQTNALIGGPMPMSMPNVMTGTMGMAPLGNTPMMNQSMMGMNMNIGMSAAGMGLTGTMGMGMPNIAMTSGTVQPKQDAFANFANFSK
UniProt Q9UJY4: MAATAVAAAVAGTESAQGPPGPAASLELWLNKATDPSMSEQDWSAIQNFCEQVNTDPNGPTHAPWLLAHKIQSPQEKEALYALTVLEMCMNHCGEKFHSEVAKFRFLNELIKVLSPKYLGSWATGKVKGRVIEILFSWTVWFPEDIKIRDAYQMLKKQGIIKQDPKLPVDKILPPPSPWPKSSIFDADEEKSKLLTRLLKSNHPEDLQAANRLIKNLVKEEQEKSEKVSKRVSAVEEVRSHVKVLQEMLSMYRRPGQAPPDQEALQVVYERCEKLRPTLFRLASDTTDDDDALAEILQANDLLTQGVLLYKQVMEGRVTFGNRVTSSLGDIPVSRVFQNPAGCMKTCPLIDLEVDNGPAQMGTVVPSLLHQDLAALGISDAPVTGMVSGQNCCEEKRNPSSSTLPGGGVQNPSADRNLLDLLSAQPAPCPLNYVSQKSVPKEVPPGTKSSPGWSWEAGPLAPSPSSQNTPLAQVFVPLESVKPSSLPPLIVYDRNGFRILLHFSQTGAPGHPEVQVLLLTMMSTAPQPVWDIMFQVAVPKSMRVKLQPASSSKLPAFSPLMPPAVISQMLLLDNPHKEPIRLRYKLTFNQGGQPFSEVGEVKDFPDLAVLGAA
UniProt Q9H1H9: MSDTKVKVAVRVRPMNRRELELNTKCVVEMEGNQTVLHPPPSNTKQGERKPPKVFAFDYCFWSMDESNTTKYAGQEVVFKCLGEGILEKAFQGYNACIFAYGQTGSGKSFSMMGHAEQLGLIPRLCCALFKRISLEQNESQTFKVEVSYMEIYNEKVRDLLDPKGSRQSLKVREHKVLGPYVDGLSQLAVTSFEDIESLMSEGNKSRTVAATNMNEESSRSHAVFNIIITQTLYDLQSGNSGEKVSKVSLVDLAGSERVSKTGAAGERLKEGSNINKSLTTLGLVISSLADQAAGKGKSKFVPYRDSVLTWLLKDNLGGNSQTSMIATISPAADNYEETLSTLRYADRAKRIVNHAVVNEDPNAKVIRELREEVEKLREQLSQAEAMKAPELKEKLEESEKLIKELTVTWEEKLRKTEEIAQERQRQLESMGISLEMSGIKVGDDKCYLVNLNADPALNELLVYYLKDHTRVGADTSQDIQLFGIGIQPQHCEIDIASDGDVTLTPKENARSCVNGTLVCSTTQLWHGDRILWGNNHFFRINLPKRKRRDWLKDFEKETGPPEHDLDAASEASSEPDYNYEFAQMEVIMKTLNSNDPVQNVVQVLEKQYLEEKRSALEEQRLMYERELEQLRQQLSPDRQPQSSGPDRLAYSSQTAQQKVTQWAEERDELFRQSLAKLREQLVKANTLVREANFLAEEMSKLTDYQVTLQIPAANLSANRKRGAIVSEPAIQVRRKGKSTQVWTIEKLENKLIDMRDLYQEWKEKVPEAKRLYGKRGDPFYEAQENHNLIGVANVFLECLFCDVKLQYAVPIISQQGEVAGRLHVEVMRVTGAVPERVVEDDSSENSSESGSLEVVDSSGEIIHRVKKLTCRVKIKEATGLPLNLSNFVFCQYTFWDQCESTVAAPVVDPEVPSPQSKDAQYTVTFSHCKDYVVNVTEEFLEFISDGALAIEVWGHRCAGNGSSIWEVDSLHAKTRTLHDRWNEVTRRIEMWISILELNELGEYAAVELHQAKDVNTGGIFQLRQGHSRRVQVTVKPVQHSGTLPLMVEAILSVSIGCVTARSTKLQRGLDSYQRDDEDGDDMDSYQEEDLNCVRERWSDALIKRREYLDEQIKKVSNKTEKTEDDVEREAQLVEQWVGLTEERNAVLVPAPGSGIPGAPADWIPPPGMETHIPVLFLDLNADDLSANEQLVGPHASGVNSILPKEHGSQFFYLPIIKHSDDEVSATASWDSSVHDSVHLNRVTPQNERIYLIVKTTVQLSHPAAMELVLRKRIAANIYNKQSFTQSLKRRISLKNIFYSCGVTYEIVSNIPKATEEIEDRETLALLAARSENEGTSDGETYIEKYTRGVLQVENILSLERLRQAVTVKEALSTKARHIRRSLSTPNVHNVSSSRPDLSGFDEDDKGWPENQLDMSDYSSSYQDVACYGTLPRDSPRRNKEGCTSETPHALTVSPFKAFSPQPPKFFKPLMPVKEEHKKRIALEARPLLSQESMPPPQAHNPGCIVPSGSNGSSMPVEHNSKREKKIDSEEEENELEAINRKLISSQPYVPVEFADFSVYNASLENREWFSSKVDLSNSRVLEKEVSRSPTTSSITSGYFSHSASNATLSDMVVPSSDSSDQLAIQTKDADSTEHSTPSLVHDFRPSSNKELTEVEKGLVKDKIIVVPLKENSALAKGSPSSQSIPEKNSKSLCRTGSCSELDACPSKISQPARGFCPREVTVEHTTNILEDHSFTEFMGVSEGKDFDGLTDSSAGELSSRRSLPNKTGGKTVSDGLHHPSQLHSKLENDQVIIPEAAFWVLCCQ
UniProt O43426: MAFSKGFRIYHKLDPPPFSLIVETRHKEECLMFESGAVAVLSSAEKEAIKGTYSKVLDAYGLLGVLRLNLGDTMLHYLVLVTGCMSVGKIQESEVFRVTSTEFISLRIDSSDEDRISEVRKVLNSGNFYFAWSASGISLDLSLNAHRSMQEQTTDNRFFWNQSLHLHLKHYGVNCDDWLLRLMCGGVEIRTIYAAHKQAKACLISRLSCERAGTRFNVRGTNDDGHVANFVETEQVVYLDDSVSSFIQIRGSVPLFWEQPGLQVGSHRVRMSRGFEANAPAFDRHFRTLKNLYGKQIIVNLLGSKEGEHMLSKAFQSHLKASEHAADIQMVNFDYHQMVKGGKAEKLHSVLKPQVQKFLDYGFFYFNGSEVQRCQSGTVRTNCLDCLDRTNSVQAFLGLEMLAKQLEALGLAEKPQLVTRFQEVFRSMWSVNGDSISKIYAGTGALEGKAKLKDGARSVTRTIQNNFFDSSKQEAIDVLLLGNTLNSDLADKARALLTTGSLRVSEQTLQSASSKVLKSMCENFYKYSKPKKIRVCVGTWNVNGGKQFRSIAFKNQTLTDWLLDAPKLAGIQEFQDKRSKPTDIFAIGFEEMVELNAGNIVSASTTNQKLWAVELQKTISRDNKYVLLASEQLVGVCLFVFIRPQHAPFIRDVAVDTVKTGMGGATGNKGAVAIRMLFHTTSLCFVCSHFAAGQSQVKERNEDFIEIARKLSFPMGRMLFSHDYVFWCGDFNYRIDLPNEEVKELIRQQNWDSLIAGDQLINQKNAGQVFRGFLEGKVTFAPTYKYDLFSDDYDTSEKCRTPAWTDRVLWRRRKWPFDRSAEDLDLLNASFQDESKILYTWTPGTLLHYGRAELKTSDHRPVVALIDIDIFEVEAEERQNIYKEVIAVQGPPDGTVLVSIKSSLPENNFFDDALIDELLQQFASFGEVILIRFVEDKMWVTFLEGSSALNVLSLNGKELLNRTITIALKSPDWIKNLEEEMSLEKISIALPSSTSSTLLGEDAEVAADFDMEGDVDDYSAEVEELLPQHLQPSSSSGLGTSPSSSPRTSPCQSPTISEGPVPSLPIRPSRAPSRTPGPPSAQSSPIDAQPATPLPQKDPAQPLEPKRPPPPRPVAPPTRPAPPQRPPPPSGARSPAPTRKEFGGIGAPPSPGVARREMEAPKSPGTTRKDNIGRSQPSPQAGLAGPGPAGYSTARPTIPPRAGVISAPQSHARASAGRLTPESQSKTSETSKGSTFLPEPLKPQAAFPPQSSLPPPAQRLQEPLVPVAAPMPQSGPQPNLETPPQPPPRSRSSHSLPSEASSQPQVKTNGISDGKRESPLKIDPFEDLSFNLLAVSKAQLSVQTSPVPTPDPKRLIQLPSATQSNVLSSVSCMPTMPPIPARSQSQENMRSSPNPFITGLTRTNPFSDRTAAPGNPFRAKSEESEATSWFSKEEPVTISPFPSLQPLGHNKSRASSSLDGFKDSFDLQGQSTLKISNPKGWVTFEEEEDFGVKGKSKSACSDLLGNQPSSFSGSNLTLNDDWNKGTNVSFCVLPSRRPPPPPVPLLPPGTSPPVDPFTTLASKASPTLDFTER

[2] = target: T2, AP1µA–TurboID–V5 (transiently overexpressed) (UniProt Q9BXS5); test: as above
T2 sequence: T1 sequence

[3] = target: T3, V5–TurboID–CLCa^EN (human (endogenous in HeLa)) (UniProt P09496); test: proximity labelling; V5–TurboID–CLCa knock-in in living HeLa cells, 50 µM biotin for 24 h; RIPA lysate, streptavidin magnetic beads, label-free quantitative LC-MS; compared with the AP1µA and AP2µ TurboID datasets and biotin-treated WT HeLa; four replicates
T3 sequence: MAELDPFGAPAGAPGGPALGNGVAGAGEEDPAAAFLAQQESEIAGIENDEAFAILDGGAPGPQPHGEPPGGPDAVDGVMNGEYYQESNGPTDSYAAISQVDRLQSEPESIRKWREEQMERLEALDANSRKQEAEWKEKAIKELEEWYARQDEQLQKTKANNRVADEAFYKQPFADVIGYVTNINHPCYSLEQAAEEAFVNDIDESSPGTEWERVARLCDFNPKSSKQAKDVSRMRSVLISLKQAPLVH

[4] = target: AP2µ^EN–TurboID–V5 (human (endogenous in HeLa)) (UniProt Q96CW1); test: proximity labelling; TurboID knocked in at the µ subunits of AP-1 to AP-4 in living HeLa cells, 50 µM biotin for 24 h; RIPA lysate (30 min, 24 G needle), streptavidin magnetic beads, label-free quantitative LC-MS; relative intensities compared between the AP datasets (log2 fold change >1 or <-1, P<0.05), control biotin-treated WT HeLa; four replicates

- binding [1]: binds
Molecule: ATP7A (from UniProt Q04656 1-1500)

- binding [1]: binds
Molecule: EpsinR (from UniProt Q14677 1-625)

- binding [1]: binds
- binding [2]: binds
Molecule: GGA2 (from UniProt Q9UJY4 1-613)

- binding [3]: binds
Molecule: HEAT repeat containing 5B (from UniProt Q9P2D3 1-2071)

- binding [3]: binds
Molecule: epsin-1 (from UniProt Q9Y6I3 1-576)

- binding [1]: binds
- binding [2]: binds
B4: AP-1β1 (protein, UniProt Q10567 1-949)
chain: MTDSKYFTTTKKGEIFELKAELNSDKKEKKKEAVKKVIASMTVGKDVSALFPDVVNCMQTDNLELKKLVYLYLMNYAKSQPDMAIMAVNTFVKDCEDPNPLIRALAVRTMGCIRVDKITEYLCEPLRKCLKDEDPYVRKTAAVCVAKLHDINAQLVEDQGFLDTLKDLISDSNPMVVANAVAALSEIAESHPSSNLLDLNPQSINKLLTALNECTEWGQIFILDCLANYMPKDDREAQSICERVTPRLSHANSAVVLSAVKVLMKFMEMLSKDLDYYGTLLKKLAPPLVTLLSAEPELQYVALRNINLIVQKRPEILKHEMKVFFVKYNDPIYVKLEKLDIMIRLASQANIAQVLAELKEYATEVDVDFVRKAVRAIGRCAIKVEQSAERCVSTLLDLIQTKVNYVVQEAIVVIKDIFRKYPNKYESVIATLCENLDSLDEPEARAAMIWIVGEYAERIDNADELLESFLEGFHDESTQVQLQLLTAIVKLFLKKPTETQELVQQVLSLATQDSDNPDLRDRGYIYWRLLSTDPVAAKEVVLAEKPLISEETDLIEPTLLDELICYIGTLASVYHKPPSAFVEGGRGVVHKSLPPRTASSESAESPETAPTGAPPGEQPDVIPAQGDLLGDLLNLDLGPPVSGPPLATSSVQMGAVDLLGGGLDSLMGDEPEGIGGTNFVAPPTAAVPANLGAPIGSGLSDLFDLTSGVGTLSGSYVAPKAVWLPAMKAKGLEISGTFTRQVGSISMDLQLTNKALQVMTDFAIQFNRNSFGLAPAAPLQVHAPLSPNQTVEISLPLSTVGSVMKMEPLNNLQVAVKNNIDVFYFSTLYPLHILFVEDGKMDRQMFLATWKDIPNENEAQFQIRDCPLNAEAASSKLQSSNIFTVAKRNVEGQDMLYQSLKLTNGIWVLAELRIQPGNPSCTDLELSLKCRAPEVSQHVYQAYETILKN

- binding [4]: binds
B5: epsin-2 (protein, UniProt O95208 1-641)
chain: MTTSSIRRQMKNIVNNYSEAEIKVREATSNDPWGPSSSLMTEIADLTYNVVAFSEIMSMVWKRLNDHGKNWRHVYKALTLLDYLIKTGSERVAQQCRENIFAIQTLKDFQYIDRDGKDQGINVREKSKQLVALLKDEERLKAERAQALKTKERMAQVATGMGSNQITFGRGSSQPNLSTSHSEQEYGKAGGSPASYHGSPEASLCPQHRTGAPLGQSEELQPLSQRHPFLPHLGLASRPNGDWSQPCLTCDRAARATSPRVSSELEQARPQTSGEEELQLQLALAMSREVAEQEERLRRGDDLRLQMALEESRRDTVKIPKKKEHGSLPQQTTLLDLMDALPSSGPAAQKAEPWGPSASTNQTNPWGGPAAPASTSDPWPSFGTKPAASIDPWGVPTGATVQSVPKNSDPWAASQQPASSAGKRASDAWGAVSTTKPVSVSGSFELFSNLNGTIKDDFSEFDNLRTSKKTAESVTSLPSQNNGTTSPDPFESQPLTVASSKPSSARKTPESFLGPNAALVNLDSLVTRPAPPAQSLNPFLAPGAPATSAPVNPFQVNQPQPLTLNQLRGSPVLGTSTSFGPGPGVESMAVASMTSAAPQPALGATGSSLTPLGPAMMNMVGSVGIPPSAAQATGTTNPFLL

Second part, the molecule before the results:

Molecule: AP-1γ (human (endogenous in HeLa))
- binding [1]: binds
- binding [2]: binds

Molecule: AP-1σ (human (endogenous in HeLa))
- binding [1]: binds
- binding [2]: no binding

Molecule: ITGA1 (from UniProt P56199 29-1179)
- binding [4]: binds

Molecule: kinesin-like protein KIF13A (from UniProt Q9H1H9 1-1805)
- binding [1]: binds
- binding [2]: binds

Molecule: synaptojanin-1 (from UniProt O43426 1-1573)
- binding [4]: binds
- binding [3]: binds

B1: GGA3 (protein, UniProt Q9NZ52 1-723)
chain: MAEAEGESLESWLNKATNPSNRQEDWEYIIGFCDQINKELEGPQIAVRLLAHKIQSPQEWEALQALTVLEACMKNCGRRFHNEVGKFRFLNELIKVVSPKYLGDRVSEKVKTKVIELLYSWTMALPEEAKIKDAYHMLKRQGIVQSDPPIPVDRTLIPSPPPRPKNPVFDDEEKSKLLAKLLKSKNPDDLQEANKLIKSMVKEDEARIQKVTKRLHTLEEVNNNVRLLSEMLLHYSQEDSSDGDRELMKELFDQCENKRRTLFKLASETEDNDNSLGDILQASDNLSRVINSYKTIIEGQVINGEVATLTLPDSEGNSQCSNQGTLIDLAELDTTNSLSSVLAPAPTPPSSGIPILPPPPQASGPPRSRSSSQAEATLGPSSTSNALSWLDEELLCLGLADPAPNVPPKESAGNSQWHLLQREQSDLDFFSPRPGTAACGASDAPLLQPSAPSSSSSQAPLPPPFPAPVVPASVPAPSAGSSLFSTGVAPALAPKVEPAVPGHHGLALGNSALHHLDALDQLLEEAKVTSGLVKPTTSPLIPTTTPARPLLPFSTGPGSPLFQPLSFQSQGSPPKGPELSLASIHVPLESIKPSSALPVTAYDKNGFRILFHFAKECPPGRPDVLVVVVSMLNTAPLPVKSIVLQAAVPKSMKVKLQPPSGTELSPFSPIQPPAAITQVMLLANPLKEKVRLRYKLTFALGEQLSTEVGEVDQFPPVEQWGNL
- binding [1]: binds

B2: sodium-bicarbonate co-transporter NBCn1 (protein, UniProt Q9Y6M7 1-1214)
chain: MERFRLEKKLPGPDEEAVVDLGKTSSTVNTKFEKEELESHRAVYIGVHVPFSKESRRRHRHRGHKHHHRRRKDKESDKEDGRESPSYDTPSQRVQFILGTEDDDEEHIPHDLFTEMDELCYRDGEEYEWKETARWLKFEEDVEDGGDRWSKPYVATLSLHSLFELRSCILNGTVMLDMRASTLDEIADMVLDNMIASGQLDESIRENVREALLKRHHHQNEKRFTSRIPLVRSFADIGKKHSDPHLLERNGEGLSASRHSLRTGLSASNLSLRGESPLSLLLGHLLPSSRAGTPAGSRCTTPVPTPQNSPPSSPSISRLTSRSSQESQRQAPELLVSPASDDIPTVVIHPPEEDLEAALKGEEQKNEENVDLTPGILASPQSAPGNLDNSKSGEIKGNGSGGSRENSTVDFSKVDMNFMRKIPTGAEASNVLVGEVDFLERPIIAFVRLAPAVLLTGLTEVPVPTRFLFLLLGPAGKAPQYHEIGRSIATLMTDEIFHDVAYKAKDRNDLLSGIDEFLDQVTVLPPGEWDPSIRIEPPKSVPSQEKRKIPVFHNGSTPTLGETPKEAAHHAGPELQRTGRLFGGLILDIKRKAPFFLSDFKDALSLQCLASILFLYCACMSPVITFGGLLGEATEGRISAIESLFGASLTGIAYSLFAGQPLTILGSTGPVLVFEKILYKFCRDYQLSYLSLRTSIGLWTSFLCIVLVATDASSLVCYITRFTEEAFAALICIIFIYEALEKLFDLGETYAFNMHNNLDKLTSYSCVCTEPPNPSNETLAQWKKDNITAHNISWRNLTVSECKKLRGVFLGSACGHHGPYIPDVLFWCVILFFTTFFLSSFLKQFKTKRYFPTKVRSTISDFAVFLTIVIMVTIDYLVGVPSPKLHVPEKFEPTHPERGWIISPLGDNPWWTLLIAAIPALLCTILIFMDQQITAVIINRKEHKLKKGAGYHLDLLMVGVMLGVCSVMGLPWFVAATVLSISHVNSLKVESECSAPGEQPKFLGIREQRVTGLMIFILMGLSVFMTSVLKFIPMPVLYGVFLYMGVSSLKGIQLFDRIKLFGMPAKHQPDLIYLRYVPLWKVHIFTVIQLTCLVLLWVIKVSAAAVVFPMMVLALVFVRKLMDLCFTKRELSWLDDLMPESKKKKEDDKKKKEKEEAERMLQDDDDTVHLPFEGGSLLQIPVKALKYSPDKPVSVKISFEDEPRKKYVDAETSL
- binding [1]: binds

B3: GGA1 (protein, UniProt Q9UJY5 1-639)
chain: MEPAMEPETLEARINRATNPLNKELDWASINGFCEQLNEDFEGPPLATRLLAHKIQSPQEWEAIQALTVLETCMKSCGKRFHDEVGKFRFLNELIKVVSPKYLGSRTSEKVKNKILELLYSWTVGLPEEVKIAEAYQMLKKQGIVKSDPKLPDDTTFPLPPPRPKNVIFEDEEKSKMLARLLKSSHPEDLRAANKLIKEMVQEDQKRMEKISKRVNAIEEVNNNVKLLTEMVMSHSQGGAAAGSSEDLMKELYQRCERMRPTLFRLASDTEDNDEALAEILQANDNLTQVINLYKQLVRGEEVNGDATAGSIPGSTSALLDLSGLDLPPAGTTYPAMPTRPGEQASPEQPSASVSLLDDELMSLGLSDPTPPSGPSLDGTGWNSFQSSDATEPPAPALAQAPSMESRPPAQTSLPASSGLDDLDLLGKTLLQQSLPPESQQVRWEKQQPTPRLTLRDLQNKSSSCSSPSSSATSLLHTVSPEPPRPPQQPVPTELSLASITVPLESIKPSNILPVTVYDQHGFRILFHFARDPLPGRSDVLVVVVSMLSTAPQPIRNIVFQSAVPKVMKVKLQPPSGTELPAFNPIVHPSAITQVLLLANPQKEKVRLRYKLTFTMGDQTYNEMGDVDQFPPPETWGSL
- binding [1]: binds
